A short description of this data set: Taste on oral administration. Set-up: species or system human.

Like-named read-outs stand apart in the source and are kept apart here.

Consider `CCCCC(=O)O` [C5, n-pentanoic acid], for which the Taste result was “disagreeable taste”. Where the note is “listed as tripentanoin”, the Taste result was “very bad taste”.

On to `CCCCCCCCCCCCCCC(=O)O` [C15, n-pentadecanoic acid], for which the Taste result is on record as “does not have a disagreeable taste”.

These data come from patent publication US8399515B2, “Five and fifteen carbon fatty acids for treating metabolic disorders and as nutritional supplements” (Baylor Research Institute, priority 2003, dated 2013).
